Experimental data from patent publication US10995150B2, “Methods for inhibiting atherosclerosis by administering an anti-PCSK9 antibody” (REGENERON PHARMACEUTICALS, INC., priority 2013, dated 2021).

Key:
[1] = test system: APOE*3Leiden.CETP mice; assay: Liver weight and hepatic lipid analysis; conditions: for Liver lipids: CE (cholesterol esters) / Liver lipids: FC (free cholesterol) / Liver lipids: TG (triglycerides): alone or + atorvastatin, mean ± SD
[2] = test system: APOE*3Leiden.CETP mice; assay: Fecal excretion of bile acids and neutral sterols; type: in vivo, mouse; conditions: alone or + atorvastatin, mean ± SD

CC(C)c1c(C(=O)Nc2ccccc2)c(-c2ccccc2)c(-c2ccc(F)cc2)n1CC[C@@H](O)C[C@@H](O)CC(=O)O [atorvastatin, reference compound]
hepatic cholesteryl esters, change compared to the control group ([1]; atorvastatin 3.6 mg/kg/d alone, 18 weeks): −48%

mAb316P: human anti-PCSK9 antibody; HCVR SEQ ID NO:1, LCVR SEQ ID NO:6
Liver lipids: CE (cholesterol esters) ([1]; 3 mg mAb316P): 48.2 ± 8.2 μg/mg protein | Liver lipids: FC (free cholesterol) ([1]; 3 mg mAb316P): 11.2 ± 1.4 μg/mg protein | Liver lipids: TG (triglycerides) ([1]; 3 mg mAb316P): 117.7 ± 21.6 μg/mg protein | Liver lipids: CE (cholesterol esters) ([1]; 10 mg mAb316P): 53.9 ± 10.4 μg/mg protein | Liver lipids: FC (free cholesterol) ([1]; 10 mg mAb316P): 11.4 ± 2.0 μg/mg protein | Liver lipids: TG (triglycerides) ([1]; 10 mg mAb316P): 142.1 ± 43.0 μg/mg protein | effect on hepatic content of cholesterol and TG ([1]; mAb316P alone (3 or 10 mg/kg), 18 weeks): did not affect | Bile acid excretion ([2]; 3 mg mAb316P): 14.3 ± 2.7 μmol/100 g mouse/day | Neutral sterol excretion ([2]; 3 mg mAb316P): 20.4 ± 6.2 μmol/100 g mouse/day | Bile acid excretion ([2]; 10 mg mAb316P): 12.4 ± 3.2 μmol/100 g mouse/day | Neutral sterol excretion ([2]; 10 mg mAb316P): 21.6 ± 5.6 μmol/100 g mouse/day
